Data source: PubChem BioAssay AID686938 (Drosophila RNAi Screening Center, 2013)
The screen tested about 23,000 reagents; below is a random part of those that have a named target and a result. Of all reagents, 75 (0.33%) got an active call. 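Raw plate signals without normalisation; calls rest on plate z-scores that were not deposited; ratio present for only 364 wells.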 A plus sign joins genes that one reagent is predicted to hit. Not stated in the record: the dose of the treatment.

Purpose: 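Looking for CRAC channel components and the factors controlling them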 (primary screen)
System: Drosophila S2R+ cells
Reagents: long dsRNA against Drosophila genes, about 0.25 µg dsRNA per well, roughly 10,000 cells
Timing: 5 days of knock-down before the calcium assay
Treatment: thapsigargin (SERCA pump blocker) to empty calcium stores; entry signal taken 4 min after adding it
Detection: 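Per-well fluo-4 fluorescence in two replicates, unnormalised, measured in resting cells and 4 min after store depletion by the SERCA blocker thapsigargin; ratio of the two present in few wells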
Scale: calcium entry signal: higher = stronger calcium signal after store depletion; resting calcium signal: higher = higher resting calcium signal
Rule for the call: 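Called when the plate z-score of the entry-to-rest ratio, mean of duplicates, falls below −3; wells with low overall dye signal (Fmax z below −2) or more than five off-targets excluded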
Calls: active = strongly reduced calcium entry; inactive = no strong reduction

no.	gene	DRSC id	calcium entry signal, replicate 1 (fluorescence units)	calcium entry signal, replicate 2 (fluorescence units)	resting calcium signal, replicate 1 (fluorescence units)	resting calcium signal, replicate 2 (fluorescence units)	Call
1	Dtg (GeneID 41558)	DRSC15998	3.94e7	4.63e7	1.69e7	2.04e7	inactive
2	CG10311 (GeneID 41984)	DRSC14228	3.49e7	4.65e7	1.64e7	8.38e7	inactive
3	CG2186 (GeneID 32017)	DRSC19838	2.24e7	3.48e7	1.13e7	1.49e7	inactive
4	CG30471 (GeneID 246633)	DRSC07096	2.92e7	2.84e7	1.32e7	1.31e7	inactive
5	His2B:CG33870 + His2B:CG33868 + His2B:CG33882 + 21 more	DRSC03757	1.64e7	2.39e7	1.23e7	1.50e7	inactive
6	nec (GeneID 45908)	DRSC06769	3.13e7	3.95e7	1.45e7	1.76e7	inactive
7	CG8777 (GeneID 35921)	DRSC07263	4.91e7	4.28e7	1.98e7	1.93e7	inactive
8	CG9698 (GeneID 43629)	DRSC16539	4.04e7	3.24e7	1.90e7	1.44e7	inactive
9	cnk (GeneID 36952)	DRSC07595	4.17e7	4.63e7	2.01e7	2.29e7	inactive
10	CG3788 (GeneID 37644)	DRSC04418	4.35e7	4.31e7	2.09e7	2.01e7	inactive
11	Sas10 (GeneID 31447)	DRSC18355	1.54e7	2.08e7	9.47e6	1.16e7	inactive
12	GPHR (GeneID 36682)	DRSC07075	3.25e7	4.06e7	1.58e7	2.04e7	inactive
13	Acyp2 (GeneID 41910)	DRSC15336	2.94e7	5.25e7	1.45e7	6.41e7	inactive
14	Itgbn (GeneID 35368)	DRSC03493	3.74e7	4.43e7	1.63e7	1.76e7	inactive
15	CG32017 (GeneID 317823)	DRSC17183	5.76e7	3.34e7	2.66e7	1.46e7	inactive
16	Gr59c (GeneID 192481)	DRSC04185	3.78e7	4.43e7	1.88e7	1.99e7	inactive
17	Nplp2 (GeneID 50286)	DRSC09824	2.76e7	4.70e7	1.52e7	2.04e7	inactive
18	CG30447 (GeneID 246621)	DRSC05820	2.65e7	6.26e7	1.33e7	2.88e7	inactive
19	Dcr-2 (GeneID 36993)	DRSC06992	4.93e7	5.51e7	2.14e7	2.41e7	inactive
20	PIG-N (GeneID 36049)	DRSC06837	3.91e7	3.56e7	1.80e7	1.64e7	inactive
21	raskol (GeneID 32754)	DRSC19202	2.87e7	4.56e7	1.53e7	1.99e7	inactive
22	raskol (GeneID 32754)	DRSC19731	2.54e7	3.07e7	1.45e7	1.40e7	inactive
23	raskol (GeneID 32754)	DRSC19964	3.13e7	2.74e7	1.72e7	1.27e7	inactive
24	raskol (GeneID 32754)	DRSC19967	2.17e7	2.19e7	1.45e7	1.25e7	inactive
25	raskol (GeneID 32754)	DRSC21788	4.65e7	3.89e7	2.71e7	1.75e7	inactive
